Drawing on PMC10905746, this text covers binding for one substance.

The chains behind the UniProt entries cited, without tags or fusion partners.
UniProt Q13950: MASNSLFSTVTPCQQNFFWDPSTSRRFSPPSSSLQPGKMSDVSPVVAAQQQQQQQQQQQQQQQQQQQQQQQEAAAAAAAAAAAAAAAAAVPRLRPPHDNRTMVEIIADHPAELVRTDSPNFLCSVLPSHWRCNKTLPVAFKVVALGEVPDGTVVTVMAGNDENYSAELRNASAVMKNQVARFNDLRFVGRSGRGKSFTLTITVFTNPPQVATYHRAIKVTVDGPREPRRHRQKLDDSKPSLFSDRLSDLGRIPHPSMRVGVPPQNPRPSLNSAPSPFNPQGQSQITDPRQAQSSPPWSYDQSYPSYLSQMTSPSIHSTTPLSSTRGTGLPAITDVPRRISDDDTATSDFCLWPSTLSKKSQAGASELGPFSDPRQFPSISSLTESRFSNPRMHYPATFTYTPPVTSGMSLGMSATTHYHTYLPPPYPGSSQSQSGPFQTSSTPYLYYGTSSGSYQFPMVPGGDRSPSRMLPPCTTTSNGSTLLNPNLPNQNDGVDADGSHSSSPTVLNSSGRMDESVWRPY

Results are given in words; binding and its absence hold for the method and conditions named.

The target in the experiment is GST-BRD4-C-term (E653-F1362) (human) (UniProt O60885). The experiment can be described thus: pull-down; 1 μg GST protein on magnetic glutathione beads with 1-3 μg of His-RUNX2; both purified.

As for “His-RUNX2 (Origene, TP760214) (from UniProt Q13950 1-521)”, the binding result is reported as “no binding (tested: 1-3 μg of His-RUNX2)”.
